# Experimental data from US10543298B2, “Salts of tetracyclines” (Hovione Scientia Limited, priority 2015, dated 2020).
# Counter-ions that a name gives are not always drawn.
# Assay: Taste comparison of aqueous solutions against quinine hydrochloride bitter taste standard
# Conditions: aqueous solution 0.5 mg/ml; quinine hydrochloride as bitter taste standard
row,Compound,Taste
1,Demeclocycline Maleate,"Unpleaseant, oil like"
2,"CCO.C[C@H]1c2cccc(O)c2C(=O)C2=C(O)[C@]3(O)C(=O)C(C(N)=O)=C(O)[C@@H](N(C)C)[C@@H]3[C@@H](O)[C@@H]21.C[C@H]1c2cccc(O)c2C(=O)C2=C(O)[C@]3(O)C(=O)C(C(N)=O)=C(O)[C@@H](N(C)C)[C@@H]3[C@@H](O)[C@@H]21.Cl.Cl.O [Doxycycline Hyclate, reference compound]",Slightly bitter
3,"C[C@H]1c2cccc(O)c2C(=O)C2=C(O)[C@]3(O)C(=O)C(C(N)=O)=C(O)[C@@H](N(C)C)[C@@H]3[C@@H](O)[C@@H]21 [Doxycycline Monohydrate, reference compound]","Slightly bitter, almost tasteless"
4,Minocycline Oxalate,"Slightly bitter, citrine like"
5,CC1c2cccc(O)c2C(O)=C2C(=O)C3(O)C(O)=C(C(N)=O)C(=O)C(N(C)C)C3C(O)C21.O=C(O)C=CC(=O)O (stereo not shown) [Doxycycline Maleate],"Slightly bitter, fruit like"
6,C[C@H]1c2cccc(O)c2C(O)=C2C(=O)[C@]3(O)C(O)=C(C(N)=O)C(=O)[C@@H](N(C)C)[C@@H]3[C@@H](O)[C@@H]21.O=C(O)C(=O)O [Doxycycline Oxalate],Slightly bitter
7,"CN(C)c1ccc(O)c2c1C[C@H]1C[C@H]3[C@H](N(C)C)C(O)=C(C(N)=O)C(=O)[C@@]3(O)C(O)=C1C2=O [Minocycline Base, 7-dimethylamino-6-demethyl-6-deoxytetracycline, reference compound]","Almost tasteless, acidic"
8,Demeclocycline Oxalate,"Bitter, acidic"
9,CN(C)[C@@H]1C(O)=C(C(N)=O)C(=O)[C@@]2(O)C(O)=C3C(=O)c4c(O)cccc4[C@@](C)(O)[C@H]3C[C@@H]12 [Tetracycline],Almost tasteless
10,"C=C[C@H]1C[N@@]2CC[C@H]1C[C@H]2[C@H](O)c1ccnc2ccc(OC)cc12 [Quinine hydrochloride, reference compound]",Bitter
